Measurements reported in PubChem BioAssay AID1259280 (Sanger Institute, 2017)
The deposit covers 794 reagents; this is a random part of them. Over the whole deposit, 12 (1.5%) got an active call. 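Calls cover knock-down without drug only; synergy scores stand apart, values above 0.15 being treated as synergy.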 Viability is capped at 1. Further read-outs or replicates are left out here. Not stated in the record: the amount of reagent, the time to read-out.

Aim: 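Essential kinases and drug-combination synergies in SNU407 cells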 (primary screen)
Cell system: human SNU407 colorectal cancer cells
Reagents: siRNA pool against human genes
Conditions: anchor drugs BYL719 at 1 µM, cetuximab at 5 µg/ml or trametinib at 10 nM, or DMSO vehicle alone; exposure time not given
Measurement: 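Viability per well scaled to a non-targeting pool and averaged over replicates, with a robust z-score from controls and a synergy score per anchor drug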
Reading the numbers: viability z-score, no drug and viability vs control, no drug: higher = more cells survive the knock-down
Units: viability vs control, no drug in fraction of control
Active means: 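Essential calls require a no-drug robust viability z-score under -3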
Calls: active = essential (knock-down alone kills cells); inactive = no change without drug

PRKAR2B: viability z-score, no drug = -0.413; viability vs control, no drug = 0.9; call = inactive
MAST3 (microtubule associated serine/threonine kinase 3): viability z-score, no drug = 0.777; viability vs control, no drug = 0.991; call = inactive
CAMK2D (calcium/calmodulin dependent protein kinase II delta): viability z-score, no drug = 0.901; viability vs control, no drug = 1; call = inactive
STK35 (serine/threonine kinase 35): viability z-score, no drug = -0.0328; viability vs control, no drug = 0.929; call = inactive
MECOM (MDS1 and EVI1 complex locus): viability z-score, no drug = 0.901; viability vs control, no drug = 1; call = inactive
TRIO (trio Rho guanine nucleotide exchange factor): viability z-score, no drug = 0.901; viability vs control, no drug = 1; call = inactive
MPP2 (MAGUK p55 scaffold protein 2): viability z-score, no drug = 0.901; viability vs control, no drug = 1; call = inactive
NR2F2 (nuclear receptor subfamily 2 group F member 2): viability z-score, no drug = -1.26; viability vs control, no drug = 0.835; call = inactive
TTBK2 (tau tubulin kinase 2): viability z-score, no drug = -0.166; viability vs control, no drug = 0.918; call = inactive
TAF1L (TATA-box binding protein associated factor 1 like): viability z-score, no drug = 0.461; viability vs control, no drug = 0.966; call = inactive
MAP3K10 (mitogen-activated protein kinase kinase kinase 10): viability z-score, no drug = 0.901; viability vs control, no drug = 1; call = inactive
STK4 (serine/threonine kinase 4): viability z-score, no drug = 0.609; viability vs control, no drug = 0.978; call = inactive
DGKG (diacylglycerol kinase gamma): viability z-score, no drug = 0.901; viability vs control, no drug = 1; call = inactive

2 successive entries already listed, for reference:
TAF1L (TATA-box binding protein associated factor 1 like): viability z-score, no drug = 0.461; viability vs control, no drug = 0.966; call = inactive
MAP3K10 (mitogen-activated protein kinase kinase kinase 10): viability z-score, no drug = 0.901; viability vs control, no drug = 1; call = inactive

Additional results:
TBK1 (TANK binding kinase 1): viability z-score, no drug = 0.846; viability vs control, no drug = 0.996; call = inactive
PRKG1 (protein kinase cGMP-dependent 1): viability z-score, no drug = 0.901; viability vs control, no drug = 1; call = inactive
PBK (PDZ binding kinase): viability z-score, no drug = 0.78; viability vs control, no drug = 0.991; call = inactive
IP6K3 (inositol hexakisphosphate kinase 3): viability z-score, no drug = 0.901; viability vs control, no drug = 1; call = inactive
FGFR2 (fibroblast growth factor receptor 2): viability z-score, no drug = -1.7; viability vs control, no drug = 0.801; call = inactive
EPHA5 (EPH receptor A5): viability z-score, no drug = 0.901; viability vs control, no drug = 1; call = inactive
CTNNB1 (catenin beta 1): viability z-score, no drug = -1.41; viability vs control, no drug = 0.824; call = inactive
